Laboratory results: US20240358849A1 (SUZHOU FUSE BIOSCIENCES, published 2024)
These are yes or no findings as the source states them, for the method shown. Some results given as binding are weak or reduced against the parent protein; the word gives no strength. Values belong to the binder of their own block, whether it stands above or below them.

Amino acid sequences for entries named in this document (tags omitted). A change or cut given only in a name is not applied to a line headed by its entry.
UniProt P60568: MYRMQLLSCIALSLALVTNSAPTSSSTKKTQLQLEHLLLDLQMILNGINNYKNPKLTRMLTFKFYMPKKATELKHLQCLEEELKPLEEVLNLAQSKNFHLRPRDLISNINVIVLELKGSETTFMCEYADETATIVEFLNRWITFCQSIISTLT
UniProt Q12884: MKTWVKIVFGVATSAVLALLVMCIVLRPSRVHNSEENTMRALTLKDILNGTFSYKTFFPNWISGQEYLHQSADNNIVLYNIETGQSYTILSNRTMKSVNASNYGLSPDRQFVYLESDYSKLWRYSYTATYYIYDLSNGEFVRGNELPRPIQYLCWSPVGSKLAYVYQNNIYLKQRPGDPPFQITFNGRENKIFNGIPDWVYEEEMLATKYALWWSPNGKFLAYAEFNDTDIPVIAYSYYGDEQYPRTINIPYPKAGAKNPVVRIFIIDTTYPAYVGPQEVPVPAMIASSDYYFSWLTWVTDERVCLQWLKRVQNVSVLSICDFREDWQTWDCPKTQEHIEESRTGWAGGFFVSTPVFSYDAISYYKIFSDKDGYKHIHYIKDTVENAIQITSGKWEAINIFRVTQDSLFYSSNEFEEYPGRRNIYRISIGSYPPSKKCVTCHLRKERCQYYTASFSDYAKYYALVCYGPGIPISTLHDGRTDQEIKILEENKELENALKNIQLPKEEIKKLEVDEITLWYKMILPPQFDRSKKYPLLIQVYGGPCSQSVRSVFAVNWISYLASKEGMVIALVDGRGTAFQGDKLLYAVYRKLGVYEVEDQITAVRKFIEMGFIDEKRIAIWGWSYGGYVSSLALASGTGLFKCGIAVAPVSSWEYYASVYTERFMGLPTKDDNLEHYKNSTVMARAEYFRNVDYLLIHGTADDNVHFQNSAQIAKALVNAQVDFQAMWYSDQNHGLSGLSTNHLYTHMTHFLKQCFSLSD

Columns and labels:
[1] = target: T1, human interleukin-2 (IL-2), wild type (human, UniProt P60568 21-153, biotinylated when immobilized); assay: binding kinetics (FIG. 33B)
T1 construct: also called biotinylated IL-2; IL2 WT

[2] = target: T1, human interleukin-2 (IL-2), wild type; assay: bio-layer interferometry, IL-2 loaded on the sensor (about 100 to 350 s, to about 0.5 nm), B10 alone in the first antibody step, then no second antibody
[3] = target: T1, human interleukin-2 (IL-2), wild type; assay: screening of phage libraries, monoclonal phage ELISA
[4] = target: T1, human interleukin-2 (IL-2), wild type; assay: bio-layer interferometry, biotinylated IL-2 on streptavidin sensor, monovalent Fab-Fc fusion of D002 in solution
[5] = target: T1, human interleukin-2 (IL-2), wild type; assay: bio-layer interferometry, equilibrium binding analysis of the sensorgrams of FIG. 4A
[6] = target: human Fibroblast Activation Protein (FAP), soluble antigen (human) (UniProt Q12884); assay: BLI per 6.1.3 (N.B. = no detectable binding); reformatted antibody tested by BLI at 1 µM

binding [1]: binds | binding [2]: binds
B1: two-in-one antibody B10 (bispecific antibody, V domains shown)
VH: EVQLVESGGGLVQPGGSLRLSCAASGFTFSRYSMGWVRQAPGKGLEWVSTIHSHGSGTRYADSVKGRFTISRDNSKNTLYLQMNSLRAEDTAVYYCARSQYGRYYSPDYYFDYWGQGTLVTVSS
VL: DIQMTQSPSSLSASVGDRVTITCRASQNIARYLNWYQQKPGKAPKLLIYAASSLQSGVPSRFSGSGSGTDFTLTISSLQPEDFATYYCQQGRYSPFTFGQGTKVEIKR

binding [3]: binds | binding [6]: no binding (tested: 1 µM)
B3: anti-IL-2/anti-FAP two-in-one antibody D029 (bispecific antibody, V domains shown)
VH: EVQLVESGGGLVQPGGSLRLSCAASGFTFTWSFMSWVRQAPGKGLEWVSWIGPSGSYTDYADSVKGRFTISRDNSKNTLYLQMNSLRAEDTAVYYCARSQYGRYYSPDYYFDYWGQGTLVTVSS
VL: DIQMTQSPSSLSASVGDRVTITCRASQDGGNYLNWYQQKPGKAPKLLIYGASTLYSGVPSRFSGSGSGTDFTLTISSLQPEDFATYYCQQGRTPPLTFGQGTKVEIKR

Second part, the binder before the results:

B2: anti-IL-2/anti-FAP two-in-one antibody D002 (bispecific antibody, V domains shown)
VH: EVQLVESGGGLVQPGGSLRLSCAASGFTFSRYSMSWVRQAPGKGLEWVSDISSYSTTYYADSVKGRFTISRDNSKNTLYLQMNSLRAEDTAVYYCARSQYGRYYSPDYYFDYWGQGTLVTVSS
VL: DIQMTQSPSSLSASVGDRVTITCRASQSIGNSLNWYQQKPGKAPKLLIYAASSLQSGVPSRFSGSGSGTDFTLTISSLQPEDFATYYCQQGRRSPFTFGQGTKVEIKR
binding [3]: binds | binding [4]: binds | binding [5]: binds

B4: anti-IL-2/anti-FAP two-in-one antibody D001 (bispecific antibody, V domains shown)
VH: EVQLVESGGGLVQPGGSLRLSCAASGFTFSRYSMSWVRQAPGKGLEWVSAISPYGGGTDYADSVKGRFTISRDNSKNTLYLQMNSLRAEDTAVYYCARSQYGRYYSPDYYFDYWGQGTLVTVSS
VL: DIQMTQSPSSLSASVGDRVTITCRASQVIGSSLNWYQQKPGKAPKLLIYAASSLQSGVPSRFSGSGSGTDFTLTISSLQPEDFATYYCQQGRSYPYTFGQGTKVEIKR
notes: Fab/scFv or monovalent Fab-Fc
binding [3]: binds
